Results are given in words; binding and its absence hold for the method and conditions named. In cells and extracts the contact can be indirect. Binding can be weak; no strength is given.
Experiments:
[1] = molecular target: GST fusion of the entire C-terminal cytoplasmic tail of VGLUT1 (rat) (UniProt Q62634); test: pull-down; 400 µg GST fusions of the VGLUT1 C-terminus on glutathione sepharose beads, rat brain extract in 100 mM Tris-HCl pH 7.5, 150 mM NaCl, 1 mM EGTA, 1% TX-100, 4°C 2 h; immunoblot (Fig. 6); only the target purified
[2] = molecular target: GST fusion of the entire C-terminal cytoplasmic tail of VGLUT1 (rat) (UniProt Q62634); test: pull-down; GST fusions of the VGLUT1 C-terminus on glutathione sepharose beads, incubated with detergent-solubilized (2% TX-100) rat brain extract, RT 60 min; bound proteins by immunoblot, band intensity normalised to VG1 (Figs. 3C,D and 4B); only the target purified
[3] = molecular target: GST fusion of the entire C-terminal cytoplasmic tail of VGLUT1 (rat) (UniProt Q62634); test: pull-down; GST fusions of the VGLUT1 C-terminus on glutathione sepharose beads, incubated with extracts of COS7 cells transfected with myc-Lyn (2% TX-100); detected with antibody to myc, band intensity normalised to VG1; only the target purified

By UniProt entry, the sequences of proteins in these tests, tags left out. Where a name states a change or a piece, a line headed by the entry shows the natural chain unless it says otherwise.
UniProt Q62634: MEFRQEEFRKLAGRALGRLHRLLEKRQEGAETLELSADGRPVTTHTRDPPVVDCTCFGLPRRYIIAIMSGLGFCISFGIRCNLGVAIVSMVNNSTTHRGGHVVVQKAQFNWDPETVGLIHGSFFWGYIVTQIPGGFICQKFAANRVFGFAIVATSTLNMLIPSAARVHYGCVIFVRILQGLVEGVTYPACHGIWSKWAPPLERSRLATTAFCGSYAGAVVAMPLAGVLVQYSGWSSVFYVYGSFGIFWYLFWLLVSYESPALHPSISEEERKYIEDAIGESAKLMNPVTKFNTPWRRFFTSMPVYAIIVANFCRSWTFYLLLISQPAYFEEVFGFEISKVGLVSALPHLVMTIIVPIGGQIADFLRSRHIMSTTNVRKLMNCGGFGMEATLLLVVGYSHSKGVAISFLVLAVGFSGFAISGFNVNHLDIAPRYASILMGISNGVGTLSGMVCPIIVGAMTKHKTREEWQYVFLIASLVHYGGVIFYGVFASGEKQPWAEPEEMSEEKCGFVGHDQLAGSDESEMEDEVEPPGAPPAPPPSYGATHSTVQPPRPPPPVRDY
UniProt O35180: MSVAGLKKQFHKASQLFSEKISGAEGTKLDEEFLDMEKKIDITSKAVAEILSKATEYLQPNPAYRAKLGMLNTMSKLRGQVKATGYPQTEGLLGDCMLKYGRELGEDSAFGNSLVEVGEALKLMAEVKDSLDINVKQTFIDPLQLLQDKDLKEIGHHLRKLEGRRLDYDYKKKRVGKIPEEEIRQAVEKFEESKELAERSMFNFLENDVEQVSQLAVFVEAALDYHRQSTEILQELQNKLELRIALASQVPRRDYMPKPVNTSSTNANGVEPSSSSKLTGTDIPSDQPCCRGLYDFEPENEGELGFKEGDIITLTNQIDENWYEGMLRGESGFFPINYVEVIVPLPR
UniProt O35179: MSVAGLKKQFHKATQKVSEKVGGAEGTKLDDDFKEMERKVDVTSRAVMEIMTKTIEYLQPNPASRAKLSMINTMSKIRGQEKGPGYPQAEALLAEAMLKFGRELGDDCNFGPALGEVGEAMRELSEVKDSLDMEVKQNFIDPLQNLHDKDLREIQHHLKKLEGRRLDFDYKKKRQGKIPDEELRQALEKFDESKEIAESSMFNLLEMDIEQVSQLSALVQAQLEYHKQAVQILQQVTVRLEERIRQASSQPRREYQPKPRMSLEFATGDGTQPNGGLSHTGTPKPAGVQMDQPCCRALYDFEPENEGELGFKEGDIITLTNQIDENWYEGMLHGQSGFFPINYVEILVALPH
UniProt Q62940: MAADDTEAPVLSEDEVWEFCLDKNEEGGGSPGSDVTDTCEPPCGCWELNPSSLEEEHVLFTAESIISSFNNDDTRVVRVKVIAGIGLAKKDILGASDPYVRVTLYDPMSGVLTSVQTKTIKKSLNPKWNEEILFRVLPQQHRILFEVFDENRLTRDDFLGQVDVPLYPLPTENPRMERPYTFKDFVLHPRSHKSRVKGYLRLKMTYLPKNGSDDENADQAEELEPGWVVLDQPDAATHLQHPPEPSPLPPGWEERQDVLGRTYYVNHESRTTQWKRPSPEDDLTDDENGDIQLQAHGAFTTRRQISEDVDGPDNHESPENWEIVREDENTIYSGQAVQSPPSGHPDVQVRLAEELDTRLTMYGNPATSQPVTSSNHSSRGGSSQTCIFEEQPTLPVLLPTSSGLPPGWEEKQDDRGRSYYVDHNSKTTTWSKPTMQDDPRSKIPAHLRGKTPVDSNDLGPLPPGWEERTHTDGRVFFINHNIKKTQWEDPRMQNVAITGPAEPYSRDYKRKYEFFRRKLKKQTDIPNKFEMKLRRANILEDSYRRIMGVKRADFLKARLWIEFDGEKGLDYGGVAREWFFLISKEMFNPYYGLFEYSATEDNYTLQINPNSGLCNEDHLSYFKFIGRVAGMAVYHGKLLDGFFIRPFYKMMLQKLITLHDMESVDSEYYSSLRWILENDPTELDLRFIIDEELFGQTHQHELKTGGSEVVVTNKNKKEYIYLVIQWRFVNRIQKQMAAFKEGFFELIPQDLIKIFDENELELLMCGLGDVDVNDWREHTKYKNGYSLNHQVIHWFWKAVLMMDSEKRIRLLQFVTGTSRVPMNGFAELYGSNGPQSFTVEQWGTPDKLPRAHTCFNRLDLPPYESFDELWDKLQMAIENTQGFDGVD
UniProt P25911: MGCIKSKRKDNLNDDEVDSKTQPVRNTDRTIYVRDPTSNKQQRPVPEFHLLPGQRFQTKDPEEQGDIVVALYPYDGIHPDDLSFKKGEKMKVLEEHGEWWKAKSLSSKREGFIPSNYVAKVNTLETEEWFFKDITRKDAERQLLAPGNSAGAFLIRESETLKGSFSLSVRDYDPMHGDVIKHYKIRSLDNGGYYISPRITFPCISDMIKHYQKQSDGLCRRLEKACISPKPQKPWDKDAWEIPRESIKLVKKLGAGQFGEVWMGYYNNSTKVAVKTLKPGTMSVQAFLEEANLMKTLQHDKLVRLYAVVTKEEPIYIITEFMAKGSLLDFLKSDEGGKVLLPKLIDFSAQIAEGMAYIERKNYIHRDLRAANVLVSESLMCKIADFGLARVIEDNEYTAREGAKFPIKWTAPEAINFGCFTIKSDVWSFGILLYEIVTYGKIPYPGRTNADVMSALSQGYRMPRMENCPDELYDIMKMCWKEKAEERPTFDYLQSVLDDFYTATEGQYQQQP

binding [1] | binding [2] | binding [3] | Substance
binds |  |  | endophilin 3 from rat brain extract (from UniProt O35180 1-347)
binds |  |  | endophilin 1 from rat brain extract (from UniProt O35179 1-352)
binds | binds |  | Nedd4 from rat brain extract (from UniProt Q62940 1-887) (enzyme)
 |  | binds | myc-tagged Lyn (from UniProt P25911 1-512) (enzyme)

Source: publication PMC4198130
